This passage reports AC50 results from PubChem BioAssay AID1487 (National Center for Advancing Translational Sciences (NCATS), 2009).

Some of the results follow. These are further read-outs of the screen, such as a control signal, another cell line or another target. No call is given for them. The list favours compounds with an active or inconclusive main result. The note in brackets gives the kind of curve behind each potency; many fits are weak.

The assay in a line: qHTS Assay for Modulators of Lamin A Splicing. The settings on record: HeLa LMNA splicing GFP/RFP minigene ratio, 48 h. In short, it runs like this: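 S3 HeLa cells stably expressing lamin A-EGFP splicing minigene plus DsRed2, 600 cells/well, 48 h compound exposure at 37C. Laser-scanning cytometry; analysed as GFP (500-530 nm)/RFP (575-640 nm) total intensity ratio; 0.5% DMSO vehicle.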
A general note: Quantitative high-throughput screening tests each substance at several concentrations.

Where [1] appears, read: measured here: GFP splicing reporter channel.
The mark [2] stands for this setting: measured here: RFP viability control channel.

What is called AC50 is the concentration giving half of the maximal activity seen. Take `NC1=NC(S)C2N=CN=C2N1` (stereo unspecified): the AC50 by setting is: under setting [1], 5.01 µM [rising, full curve]; under setting [2], 0.0891 µM [rising, full curve, poor fit].

With `CCC(C)NC(=O)CNC(=S)N(Cc1ccc(F)cc1)C1CCCCC1` (stereo unspecified), the AC50 was 35.5 µM [falling, single point] under setting [1] and 35.5 µM [falling, single point] under setting [2].

For the molecule `CSCCC(NS(=O)(=O)c1ccc(Cl)cc1)C(=O)OCC(=O)c1c(C)[nH]c2ccccc12` (stereo unspecified), the AC50 runs as follows: under setting [1], 2 µM [rising, single point]; under setting [2], 35.5 µM [falling, single point]. Take `Cc1cccc(-n2ncc3c(NCCCN4CCCC4=O)ncnc32)c1`: the AC50 under setting [1] was 0.178 µM [falling, partial curve]. `CC(C)CCNC(=O)CCCc1ccccc1`: the AC50 is, setting by setting: under setting [1], 0.141 µM [rising, full curve, poor fit]; under setting [2], 0.158 µM [rising, full curve]. As to `COC(=O)c1sccc1S(=O)(=O)N(CC(=O)Nc1ccc(C)c(F)c1)c1ccc(C)c(C)c1`, the AC50 under setting [1] is 7.94 µM [falling, partial curve, poor fit]. In the case of `CCCNc1ncnc2c1c(-c1ccccc1)cn2-c1ccc(OCC)cc1`, the AC50 runs as follows: under setting [1], 0.0141 µM [rising, full curve, poor fit]; under setting [2], 0.2 µM [rising, full curve, poor fit]. As to `COc1ccc(NC(=O)CCn2c(-c3ccc(F)cc3)cc(C(C)=O)c2C)c(OC)c1`, the AC50 under setting [1] was 0.01 µM [rising, full curve, poor fit]. Consider `CCc1ccc(CNC(=O)c2sc3nc[nH]c(=O)c3c2C)cc1`, for which the AC50 under setting [2] is 0.0398 µM [falling, full curve, poor fit]. Consider `O=C(c1ccc2c(c1)N(Cc1cccc(Cl)c1)C(=O)c1ccccc1S2(=O)=O)N1CCN(c2ccccn2)CC1`, for which the AC50 under setting [1] was 1 µM [falling, full curve] and the AC50 under setting [2] was 10 µM [rising, single point]. For `C#CCOCCOCCOCCNc1nc(N2CCOCC2)nc(N2CCN(C(=O)[C@H]([C@@H](C)CC)n3cc(CCCCN)nn3)CC2)n1`, the AC50 under setting [2] was 0.0282 µM [rising, single point]. On to `C=CCNC(=S)N1CCN(c2ccc([N+](=O)[O-])cc2)CC1`, for which, under setting [2], the AC50 was 0.0112 µM [rising, full curve, poor fit]. Consider `CCc1c(C)nc(SCc2nc(-c3ccccc3C)no2)[nH]c1=O`, for which the AC50 under setting [1] was 35.5 µM [falling, single point].

With `Cc1ccc(NC2=C(CC(=O)O)C(c3ccccc3)N(c3ccc(C)cc3)C2=O)cc1` (stereo unspecified), the AC50 under setting [2] was 11.2 µM [rising, partial curve, poor fit]. For `Cc1nnc(SC(C(=O)Nc2ccc(Cl)c([N+](=O)[O-])c2)c2ccccc2)[nH]c1=O` (stereo unspecified), the AC50 is 0.112 µM [falling, full curve, poor fit] under setting [1] and 0.00794 µM [falling, full curve, poor fit] under setting [2]. Turning to `CN(CC(=O)Nc1ccc(N2CCOCC2)cc1)C(=O)CC(c1ccccc1)c1ccccc1`, the AC50 is 1 µM [falling, full curve, poor fit] under setting [1] and 0.891 µM [falling, full curve, poor fit] under setting [2].

On to `COc1ccc(OC)c(CNc2ncnc3c2nc2n3CCCC2)c1`, for which the AC50 under setting [2] was 22.4 µM [rising, single point]. For `Cc1oc(-c2ccc(Cl)cc2)nc1CN1CCCC(C(=O)NCc2ccccn2)C1` (stereo unspecified), the AC50 runs as follows: under setting [1], 14.1 µM [rising, single point]; under setting [2], 22.4 µM [rising, single point]. Take `Cc1cc(=O)oc2cc(OCC(=O)NCCCN3CCOCC3)ccc12`: the AC50 under setting [2] was 6.31 µM [falling, single point]. `CCOC(=O)c1csc(NC(=O)c2ccc(S(=O)(=O)N(C)C)cc2)n1`: the AC50 was 12.6 µM [rising, partial curve, poor fit] under setting [1] and 12.6 µM [rising, partial curve] under setting [2]. On to `COc1cc(S(=O)(=O)N2CCN(C(=O)c3ccccc3)CC2)c(OC)cc1Br`, for which the AC50 under setting [2] is 0.00447 µM [falling, full curve, poor fit]. Take `CC(C)Oc1ccccc1C1CC(=O)Nc2cc3c(cc21)OCCO3` (stereo unspecified): the AC50 under setting [2] is 2.51 µM [rising, full curve].

Consider `Cc1ccccc1N/C(SCc1ccc(Cl)cc1)=C(/C#N)C(N)=O`, for which the AC50 reads like this: under setting [1], 35.5 µM [rising, single point]; under setting [2], 35.5 µM [rising, single point]. Take `CC(=O)c1ccc(NC(=O)CSc2nccn2CCc2ccccc2)cc1`: under setting [2], the AC50 is 31.6 µM [rising, single point]. With `O=S(=O)(Nc1cc2nc3ccccc3nc2n1Cc1ccccc1)c1ccc(Cl)cc1`, the AC50 was 7.08 µM [rising, full curve] under setting [1] and 12.6 µM [rising, partial curve] under setting [2]. `C=CCN1c2ccccc2[C@]23C[C@@H](C(=O)OC)N(C(=O)COCc4ccccc4)C2=NC(C(=O)OC)=C(C(=O)OC)[C@H]13`: the AC50 under setting [1] is 0.891 µM [rising, single point]. On to `CN1CCCC1CCOC(C)(c1ccccc1)c1ccc(Cl)cc1` (stereo unspecified), for which the AC50 under setting [1] is 5.01 µM [falling, full curve, poor fit] and the AC50 under setting [2] is 4.47 µM [falling, full curve]. In the case of `CC1=C(c2ccc(Cl)cc2)S(=O)(=O)N=C1N1CCC(C(=O)NCCc2ccco2)CC1`, the AC50 under setting [2] is 1.12 µM [falling, partial curve]. For the molecule `Cc1nc(SCc2nc3ccccc3[nH]2)c2oc3ccccc3c2n1`, the AC50 under setting [1] is 10 µM [falling, single point]. With `CCn1c(=S)[nH]c2sc3c(c2c1=O)CCCCC3`, the AC50 under setting [2] was 7.08 µM [rising, partial curve, poor fit]. For `CCCCNc1c2c3c(cccc3n(C)c1=O)C(=O)c1ccccc1-2`, the AC50 was 15.8 µM [falling, single point] under setting [1] and 15.8 µM [falling, single point] under setting [2].

As to `CCOc1cc(CNc2ncn[nH]2)ccc1OCC(=O)NC(C)(C)C`, the AC50 under setting [1] was 35.5 µM [falling, single point]. Take `CCOc1ccc(Nc2c3c(nc4ncnn24)CC(C)CC3)cc1` (stereo unspecified): the AC50 under setting [2] is 12.6 µM [rising, single point].

`NC(=O)N/N=C/c1ccc(N2CCOCC2)s1`: under setting [2], the AC50 was 35.5 µM [falling, single point]. With `N#Cc1ccc(NC(=O)Nc2ccc(Cl)cc2)cc1`, the AC50 reads like this: under setting [1], 7.08 µM [rising, full curve, poor fit]; under setting [2], 5.01 µM [rising, full curve, poor fit]. Turning to `c1ccc2c(c1)CC/C2=N/Nc1nc2ccccc2[nH]1`, the AC50 was 15.8 µM [rising, partial curve] under setting [1] and 11.2 µM [rising, partial curve] under setting [2].

Regarding `CN(C)S(=O)(=O)N1CCN(CC(O)COc2ccc3cc(Br)ccc3c2)CC1` (stereo unspecified), the AC50 under setting [1] is 14.1 µM [rising, partial curve] and the AC50 under setting [2] is 25.1 µM [rising, partial curve]. Consider `Cc1cc(C(=O)OCC(=O)NC2CCS(=O)(=O)C2)c(C)n1-c1ccccc1` (stereo unspecified), for which the AC50 under setting [2] was 15.8 µM [rising, partial curve, poor fit]. In the case of `C=CCN(CC=C)C(=S)NC(=O)c1ccc(C)c(Br)c1`, the AC50 reads like this: under setting [1], 11.2 µM [rising, partial curve]; under setting [2], 22.4 µM [rising, single point]. Consider `CC(=O)c1ccc(C(=O)N(Cc2cccnc2)c2nc3c(C)c(C)ccc3s2)cc1`, for which the AC50 under setting [2] was 17.8 µM [rising, single point].

For `Cc1cc(Nc2c(C#N)c(N)nn2C)ccc1F`, the AC50 under setting [1] was 1.78 µM [falling, partial curve, poor fit]. With `O=C(Cc1ccccc1F)Nc1cccc2cccnc12`, the AC50 was 20 µM [rising, single point] under setting [1] and 35.5 µM [rising, single point] under setting [2]. Take `N=c1c2c(ncn1Cc1ccco1)Oc1c(ccc3ccccc13)C2c1ccccc1` (stereo unspecified): the AC50 was 35.5 µM [falling, single point] under setting [1] and 5.62 µM [rising, single point] under setting [2]. Consider `COC(=O)c1nc2n(n1)C(c1cc(OC)ccc1OC)C=C(c1ccc(Br)cc1)N2` (stereo unspecified), for which the AC50 is 17.8 µM [rising, partial curve, poor fit] under setting [1] and 12.6 µM [rising, single point] under setting [2]. For the molecule `CCOc1cc(NC(=S)NCCCN2CCOCC2)c(OCC)cc1NC(=O)C1CCCCC1`, the AC50 under setting [2] is 28.2 µM [rising, single point].

Turning to `CCOc1ccc(N(C)S(=O)(=O)c2ccc3[nH]cc(C(=O)NCC4CCCO4)c(=O)c3c2)cc1` (stereo unspecified), the AC50 under setting [2] is 31.6 µM [rising, single point]. In the case of `O=C(NC1CCCCCC1)c1cc(-c2ccccn2)nc2ccccc12`, the concentration at half-maximal activity (AC50) under setting [2] was 3.98 µM [rising, full curve, poor fit].

Take `COc1ccc(/C=N/NC(=O)c2cccc(COCC(F)(F)C(F)F)c2)cc1`: under setting [1], the concentration at half-maximal activity (AC50) is 11.2 µM [rising, single point].

Consider `CCOC(=O)Cn1c(=O)c2c(nc(Br)n2Cc2ccccc2Cl)n(C)c1=O`, for which, under setting [2], the AC50 was 20 µM [rising, single point].

As to `CC(c1ccccc1)N(CC(=O)NC1CCCCC1)S(=O)(=O)c1cccc(C(F)(F)F)c1` (stereo unspecified), the AC50 is, setting by setting: under setting [1], 11.2 µM [rising, single point]; under setting [2], 15.8 µM [rising, single point]. Turning to `COc1ccccc1CNC(=O)c1ccc(-n2c(C)cc3c2CCCC3)cc1`, the AC50 by setting is: under setting [1], 35.5 µM [falling, single point]; under setting [2], 35.5 µM [falling, single point]. For the molecule `Clc1cccc(CSc2nnc(-c3ccccn3)n2Cc2ccco2)c1`, under setting [2], the AC50 was 28.2 µM [rising, single point].

Regarding `CC1CCN(S(=O)(=O)c2cc(C(=O)NCc3ccccc3)n(C)c2)CC1`, under setting [2], the AC50 is 3.16 µM [rising, full curve, poor fit].
